Data as given in PubChem BioAssay AID1259425 (University of Nebraska Medical Center, 2018).
In all, the deposit lists about 14,000 reagents; this is an unselected part. The numbers tell different reagents against one gene apart. Not stated in the record: the time to read-out.

- Screen: 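Compare each knockdown with KSR1 silencing using changes in marker transcripts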 (primary screen)
- Cell system: HCT116 human colon cancer cells
- Reagent: siRNA pool against human genes, 50 nM siRNA
- Measurement: 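mRNA of six signature genes measured together by branched-DNA assay after 50 nM siRNA pool, blank removed, divided by geometric mean of two housekeeping genes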
- Scale: BNIP3L mRNA: higher = more BNIP3L transcript after knockdown; NDRG1 mRNA: higher = more NDRG1 transcript after knockdown; BNIP3 mRNA: higher = more BNIP3 transcript after knockdown; ALDOC mRNA: higher = more ALDOC transcript after knockdown; ACSL5 mRNA: higher = more ACSL5 transcript after knockdown

no.	Target gene	pool no.	BNIP3L mRNA, set 1	NDRG1 mRNA, set 1	BNIP3 mRNA, set 1	ALDOC mRNA, set 1	ACSL5 mRNA, set 1
1	HROB (GeneID 78995)	1	0.0612	0.242	0.227	0.00744	0.228
2	SSU72 (GeneID 29101)	1	0.0715	0.122	0.284	0.0127	0.142
3	AP1M2 (GeneID 10053)	1	0.15	0.199	0.303	0.0345	0.166
4	ROBO2 (GeneID 6092)	1	0.0591	0.181	0.213	0.0415	0.169
5	TLR4 (GeneID 7099)	1	0.0774	0.26	0.305	0.0166	0.52
6	SYK (GeneID 6850)	1	0.218	0.122	0.283	0.0265	0.242
7	LZIC (GeneID 84328)	1	0.212	0.278	0.323	0.159	0.309
8	SERPINF2 (GeneID 5345)	1	0.039	0.179	0.338	0.0106	0.173
9	ICA1 (GeneID 3382)	1	0.053	0.93	0.372	0.0367	0.247
10	DNAJC6 (GeneID 9829)	1	0.104	0.785	0.382	0.0185	0.721
11	GSTM2 (GeneID 2946)	1	0.148	0.219	0.397	0.0324	0.288
12	CD24 (GeneID 100133941)	1	0.0504	0.148	0.307	0.0114	0.181
13	TYRP1 (GeneID 7306)	1	0.05	0.172	0.306	0.0174	0.11
14	CAV3 (GeneID 859)	1	0.102	0.122	0.239	0.0108	0.222
15	ANO10 (GeneID 55129)	1	0.115	0.141	0.275	0.0752	0.263
16	TOP3B (GeneID 8940)	1	0.157	0.38	0.342	0.0492	0.31
17	DDX19B (GeneID 11269)	1	0.0806	0.0986	0.242	0.0502	0.106
18	FAM167A (GeneID 83648)	1	0.136	0.164	0.358	0.0504	0.214
19	TLR2 (GeneID 7097)	1	0.0877	0.103	0.249	0.00504	0.124
20	GRAPL-AS1 (GeneID 79999)	1	0.204	0.856	0.52	0.0355	0.503
21	TENT4A (GeneID 11044)	1	0.0669	0.218	0.248	0.0363	0.103
22	TMEM87A (GeneID 25963)	1	0.0445	0.145	0.435	0.0163	0.185
23	LMX1A (GeneID 4009)	1	0.0906	0.178	0.296	0.00808	0.238
24	SUGT1P4-STRA6LP-CCDC180 (GeneID 57653)	1	0.0739	0.154	0.372	0.0105	0.156
25	IL38 (GeneID 84639)	1	0.193	0.828	0.38	0.0739	0.453
26	USP24 (GeneID 23358)	1	0.082	0.235	0.223	0.0297	0.219
27	SEC61A1 (GeneID 29927)	1	0.238	0.221	0.172	0.0326	0.273
28	YWHAH (GeneID 7533)	1	0.0763	0.0861	0.354	0.0131	0.194
29	APOBEC3B (GeneID 9582)	1	0.156	0.134	0.246	0.0194	0.0978
30	NPFFR1 (GeneID 64106)	1	0.146	0.725	0.305	0.0386	0.228
31	SNHG12 (GeneID 85028)	1	0.164	0.478	0.291	0.0686	0.265
32	ROPN1 (GeneID 54763)	1	0.235	0.313	0.375	0.0187	0.152
33	SLC41A2 (GeneID 84102)	1	0.168	0.18	0.3	0.108	0.22
34	NAAA (GeneID 27163)	1	0.107	0.114	0.266	0.0243	0.118
35	RHOBTB3 (GeneID 22836)	1	0.0739	0.141	0.271	0.0324	0.113
36	REC8 (GeneID 9985)	1	0.148	0.141	0.461	0.0205	0.141
37	IGHG3 (GeneID 3502)	1	0.0408	0.202	0.155	0.0146	0.112
38	ANKRD49 (GeneID 54851)	1	0.0581	0.188	0.272	0.0194	0.189
39	GADD45GIP1 (GeneID 90480)	1	0.0766	0.0843	0.281	0.028	0.109
40	NDUFA7 (GeneID 4701)	1	0.128	0.952	0.353	0.0198	0.186
41	ZNF423 (GeneID 23090)	1	0.171	0.161	0.451	0.0285	0.119
42	GATA1 (GeneID 2623)	1	0.0119	0.149	0.31	0.00947	0.252
43	PIWIL1 (GeneID 9271)	1	0.272	0.541	0.391	0.0371	0.146
44	FGFR4 (GeneID 2264)	1	0.127	0.178	0.342	0.0245	0.178
45	TAS2R16 (GeneID 50833)	1	0.125	0.147	0.279	0.0181	0.156
46	NLRP3 (GeneID 114548)	1	0.108	0.097	0.343	0.0154	0.0812
47	CEP290 (GeneID 80184)	1	0.102	0.103	0.428	0.028	0.22
48	CEP290 (GeneID 80184)	2	0.105	0.523	0.284	0.0259	0.202
49	POLB (GeneID 5423)	1	0.0744	0.178	0.224	0.0203	0.276
50	ANK1 (GeneID 286)	1	0.0814	0.208	0.252	0.0121	0.116

Records above whose target name begins with F or f:
Target gene	pool no.	BNIP3L mRNA, set 1	NDRG1 mRNA, set 1	BNIP3 mRNA, set 1	ALDOC mRNA, set 1	ACSL5 mRNA, set 1
FAM167A (GeneID 83648)	1	0.136	0.164	0.358	0.0504	0.214
FGFR4 (GeneID 2264)	1	0.127	0.178	0.342	0.0245	0.178
